# Results taken from PubChem BioAssay AID588590 (National Center for Advancing Translational Sciences (NCATS), 2011).
# Chains of the proteins cited; added tags and fusions are not shown. Lines headed by an entry give the natural chain unless they say otherwise; changes in a name come on top.
# UniProt Q9UNA4: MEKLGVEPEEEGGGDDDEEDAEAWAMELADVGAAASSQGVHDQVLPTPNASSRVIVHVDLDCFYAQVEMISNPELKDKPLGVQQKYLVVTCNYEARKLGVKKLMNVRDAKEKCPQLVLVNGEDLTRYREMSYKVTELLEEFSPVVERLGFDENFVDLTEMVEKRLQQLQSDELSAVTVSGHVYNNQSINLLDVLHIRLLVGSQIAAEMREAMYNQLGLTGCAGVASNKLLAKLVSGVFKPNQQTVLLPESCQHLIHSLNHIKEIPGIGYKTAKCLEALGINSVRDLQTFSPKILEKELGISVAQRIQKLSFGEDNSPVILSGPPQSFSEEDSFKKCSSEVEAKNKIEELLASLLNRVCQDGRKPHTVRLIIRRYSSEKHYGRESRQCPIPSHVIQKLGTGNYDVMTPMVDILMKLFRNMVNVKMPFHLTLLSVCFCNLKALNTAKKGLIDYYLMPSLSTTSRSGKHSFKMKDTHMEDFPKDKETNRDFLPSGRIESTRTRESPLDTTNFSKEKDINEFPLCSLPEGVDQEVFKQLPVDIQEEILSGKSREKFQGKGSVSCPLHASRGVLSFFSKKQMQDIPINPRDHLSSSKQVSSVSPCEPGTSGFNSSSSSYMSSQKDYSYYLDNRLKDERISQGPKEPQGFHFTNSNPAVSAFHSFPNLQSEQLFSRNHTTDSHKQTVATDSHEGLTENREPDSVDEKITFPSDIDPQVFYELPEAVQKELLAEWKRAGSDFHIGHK
# Out of some 390,000 compounds screened, about 4,000 (1%) were called active. The inconclusive results got no clear call from the source; some entries with a clear call stand among them for comparison. The call rests on the fitted dose curve; in most records, active means well fitted inhibition curve with a large enough effect; inconclusive means small, poorly fitted or top-dose-only effect, or another doubt; inactive means no such curve, though single readings can be large or run the other way. Potencies of inconclusive entries are doubtful fits and often do not repeat.
# Target: DNA polymerase iota (Homo sapiens) (UniProt Q9UNA4)
# Assay: qHTS for Inhibitors of Polymerase Iota
# Conditions: Pol iota fluorescent replication assay, 10 min; series mostly up to 115 µM; activity, negative = inhibition: at the top concentration
# Procedure, shortened: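 Pol iota at 10 nM preincubated 15 min with compounds at room temperature; reaction started with fluorescent substrate, 50 nM final. Fluorescence read kinetically at 0 and 10 min; buffer-only wells as negative control.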
# Potency means the concentration at half of the fitted maximal effect.
Structure (SMILES),Potency,"activity, negative = inhibition"
Cc1cc(=O)n2nc(N3CCCC(C(=O)NCc4ccccc4C)C3)sc2n1 (stereo not drawn),"inconclusive: 79.4 µM [inhibitor, partial curve, poor fit]",
NC1=NC(=O)/C(=C\c2ccco2)S1,"inconclusive: 10 µM [inhibitor, full curve, poor fit]",
Cc1ccc2cc3c(NC(=O)c4ccco4)nn(C)c3nc2c1,"inconclusive: 89.1 µM [inhibitor, single point]",
C#CCOCCOCCOCCNc1nc(N2CCN(C(=O)[C@H](Cc3cc4ccccc4[nH]3)n3cc(C(N)CC(C)C)nn3)CC2)nc(N2CCN(C(=O)[C@H](CCC(=O)O)n3cc(C(N)[C@H](C)CC)nn3)CC2)n1 (stereo partly drawn),"inconclusive: 31.6 µM [inhibitor, partial curve, poor fit]",
O=C(Nc1cccc(S(=O)(=O)N2CCCCC2)c1)C1CCC1,"inconclusive: 89.1 µM [inhibitor, single point]",
COc1ccccc1-c1coc2c(CN3CCC(C)CC3)c(O)ccc2c1=O,"inconclusive: 89.1 µM [inhibitor, partial curve]",
CC1CCCCN1c1cc2c(cc1F)c(=O)c(S(=O)(=O)c1ccccc1)cn2Cc1ccccc1 (stereo not drawn),,inactive: 8.83%
Cc1ccc2[nH]c(=O)c(CN(Cc3cccnc3)Cc3nnnn3CCN3CCOCC3)cc2c1,"inconclusive: 39.8 µM [inhibitor, single point]",
O=S(=O)(Nc1ccc(O)c(Sc2nc3ccccc3s2)c1)c1cc(Cl)ccc1Cl,"inconclusive: 56.2 µM [inhibitor, partial curve, poor fit]",
O=C(O)c1cccc(S(=O)(=O)Nc2cccc(S(=O)(=O)N3CCCC3)c2)c1,,inactive: -17.4%
COc1ccc(NC(=O)CN(C)C(=O)c2ccc3[nH]c4c(c3c2)CC(C)CC4)cc1 (stereo not drawn),"inconclusive: 3.16 µM [inhibitor, full curve, poor fit]",
COc1cc(NC(=O)c2noc3c2CC(C)CC3)c(OC)cc1Cl (stereo not drawn),"inconclusive: 12.6 µM [inhibitor, partial curve, poor fit]",
CCc1ccc(NC(=O)c2cc(S(=O)(=O)NC3CCCCCC3)ccc2F)cc1,"inconclusive: 0.708 µM [inhibitor, full curve, poor fit]",
CCCC[n+]1ccn(-c2nc3ccccc3nc2[N-]S(=O)(=O)c2ccccc2)c1,"inconclusive: 79.4 µM [inhibitor, partial curve, poor fit]",
COc1cccc2cc(C(=O)N3CCN(C(=O)c4ccco4)CC3)c(=O)oc12,,inactive: 15.8%
Cc1cc(C)n2nc(CNC(=O)c3ccc(Cl)cc3)nc2n1,,inactive: -9.78%
Cc1cc2ccccn2c1C(=O)c1ccc(Cl)cc1,"inconclusive: 89.1 µM [inhibitor, partial curve, poor fit]",
COc1ccc(NC(=O)COc2ccc(/C=C/c3cc[n+](C)cc3)cc2OC)cc1,"inconclusive: 25.1 µM [inhibitor, partial curve, poor fit]",
CN1/C(=C\C(=O)c2cccc([N+](=O)[O-])c2)Sc2ccccc21,"inconclusive: 3.55 µM [inhibitor, full curve, poor fit]",
COc1ccc(NC(=O)[C@H](Cc2ccccc2)N2Cc3ccccc3C2=O)cc1OC,"inconclusive: 22.4 µM [inhibitor, partial curve, poor fit]",

Structure (SMILES),Potency,"activity, negative = inhibition"
O=C(Nc1cccc(-c2cnc3ccccc3n2)c1)C1CC(=O)N(c2ccccc2)C1 (stereo not drawn),"inconclusive: 56.2 µM [inhibitor, partial curve, poor fit]",
O=C(Cn1c(=O)n(Cc2ccccc2)c(=O)c2ccccc21)NCc1ccco1,"inconclusive: 39.8 µM [inhibitor, single point]",
CCCCNc1c(-c2cccc(-c3ccc(OC)cc3)c2)nc2ccc(C)cn12,"inconclusive: 12.6 µM [inhibitor, full curve, poor fit]",
S=C(Nc1ccccn1)c1ccccn1,,inactive: 3.83%
CCCN(CCC)C(=O)CC(c1ccc(F)cc1)c1ccco1 (stereo not drawn),"inconclusive: 39.8 µM [inhibitor, single point]",
CCOC(=O)c1c(-c2ccco2)csc1NC(=O)COC(=O)c1cnccn1,active: 22.4 µM,
CCCCSc1n[nH]c(=S)c2nc[nH]c12,"inconclusive: 28.2 µM [inhibitor, partial curve]",
c1ccc2c3nnc4n(c-3nc2c1)CCCS4,"inconclusive: 50.1 µM [inhibitor, partial curve, poor fit]",
CSCC[C@H](NC(=O)[C@H](Cc1ccccc1)n1c(=O)[nH]c2ccccc2c1=O)C(=O)N1CCC(C(=O)O)CC1,,inactive: 5.38%
Nc1nc(Nc2ccccc2)nc(NCCO)c1[N+](=O)[O-],"inconclusive: 39.8 µM [inhibitor, partial curve, poor fit]",
Nc1ccc2nc(-c3cccc(-c4nc5ccc(N)cc5[nH]4)c3)[nH]c2c1,"inconclusive: 14.1 µM [inhibitor, full curve, poor fit]",
O=C(NCc1ccc2c(c1)OCO2)c1cc(-c2ccccc2)nn1CC1CC(c2cccnc2)=NO1 (stereo not drawn),"inconclusive: 14.1 µM [inhibitor, partial curve, poor fit]",
O=C1C(=O)N(Cc2ccco2)C(c2cccs2)/C1=C(\O)c1cccc([N+](=O)[O-])c1 (stereo not drawn),,inactive: 13.8%
Cc1csc(NC(=O)Nc2ccc(Cl)cc2)n1,"inconclusive: 25.1 µM [inhibitor, full curve, poor fit]",
CC1(C)CC[C@]2(C(=O)O)CC[C@]3(C)C(=CC[C@@H]4[C@@]5(C)CC[C@H](O[C@@H]6O[C@H](C(=O)O)[C@@H](O)[C@H](O[C@@H]7OC[C@H](O)[C@H](O)[C@H]7O)[C@H]6O)C(C)(C)[C@@H]5CC[C@]43C)[C@@H]2C1,"inconclusive: 17.8 µM [inhibitor, full curve, poor fit]",
Cc1ccc(C2=NN(C(=O)CSc3nc4ncc(Cl)cc4[nH]3)C(c3ccco3)C2)cc1 (stereo not drawn),,inactive: 42.8%
COc1cc(SC#N)ccc1N=Cc1c(C)[nH]n(-c2ccc(C)c(C)c2)c1=O,"inconclusive: 28.2 µM [inhibitor, partial curve]",
CCOc1ccc2nc(Cl)c(C3CC(c4ccc(C)cc4)=NN3C(=O)CCC(=O)O)cc2c1 (stereo not drawn),"inconclusive: 89.1 µM [inhibitor, single point]",
COc1cc(NC(=O)C2CCN(S(=O)(=O)c3ccc4[nH]c(=O)oc4c3)CC2)cc(OC)c1,,inactive: 24.3%
O=C(Nc1cc(Cl)cc(Cl)c1)c1cc(S(=O)(=O)NC2CCCC2)ccc1F,"inconclusive: 89.1 µM [inhibitor, partial curve, poor fit]",

# Two of the compounds above, with tabs:
Structure (SMILES)	Potency	activity, negative = inhibition
COc1cc(SC#N)ccc1N=Cc1c(C)[nH]n(-c2ccc(C)c(C)c2)c1=O	inconclusive: 28.2 µM [inhibitor, partial curve]	
CCOc1ccc2nc(Cl)c(C3CC(c4ccc(C)cc4)=NN3C(=O)CCC(=O)O)cc2c1 (stereo not drawn)	inconclusive: 89.1 µM [inhibitor, single point]	

# The list goes on:

Structure (SMILES),Potency,"activity, negative = inhibition"
COc1ccccc1NC(=O)CSc1nc(O)cc(=O)[nH]1,"inconclusive: 50.1 µM [inhibitor, full curve]",
O=[N+]([O-])C(/C=C(\Cl)[N+](=O)[O-])=C1N(Cc2ccc(Cl)nc2)CCN1Cc1ccc(Cl)nc1,"inconclusive: 15.8 µM [inhibitor, full curve, poor fit]",
CC(=O)Nc1ccc(S(=O)(=O)NC(C)(C#N)C2CC2)cc1 (stereo not drawn),,inactive: 34.6%
CN1C(=O)c2cccc3c(S(=O)(=O)Nc4cccc(C(=O)O)c4)ccc1c23,"inconclusive: 79.4 µM [inhibitor, single point]",
O=C(CSc1ccc2nnc(-c3cccs3)n2n1)N1CCOCC1,"inconclusive: 11.2 µM [inhibitor, partial curve, poor fit]",
CC(C)C[C@@H](CNCC(=O)[C@H](C)NC(=O)c1[nH]cnc1C(=O)N[C@@H](C)CN)NC(=O)c1nc[nH]c1C(=O)N[C@@H](CC(=O)O)C(=O)O,"inconclusive: 14.1 µM [inhibitor, partial curve, poor fit]",
O=C(NCC1CCCO1)C1CCC(=O)N1Cc1ccc(F)cc1 (stereo not drawn),"inconclusive: 100 µM [inhibitor, single point]",
CCC(C)S(=O)(=O)c1oc(-c2cccs2)nc1S(=O)(=O)c1ccccc1 (stereo not drawn),"inconclusive: 35.5 µM [inhibitor, partial curve, poor fit]",
COc1ccc(-n2c(=O)c(CCC(=O)NCCc3ccccc3F)nc3ccccc32)cc1,"inconclusive: 28.2 µM [inhibitor, single point]",
CCN1C(=O)[C@H]2[C@H]3CN=C(SCc4ccc(C#N)cc4)N3[C@@](C)(C(=O)OC)[C@H]2C1=O,"inconclusive: 25.1 µM [inhibitor, partial curve, poor fit]",
COc1ccc(C(=O)NCc2nnc(SCC(=O)Nc3cc(C)cc(C)c3)o2)cc1OC,"inconclusive: 10 µM [inhibitor, partial curve, poor fit]",
CS(=O)(=O)c1ccc2c(c1)sc1nc(=O)c(/C=C3/C=CC(=O)C(O)=C3)c(N)n12,active: 3.98 µM,
O=C(NCCc1nc2ccccc2n1Cc1ccccc1F)c1ccc(F)cc1,"inconclusive: 35.5 µM [inhibitor, partial curve, poor fit]",
O=C(CSc1cccc2cccc(Cl)c12)NCc1cccs1,"inconclusive: 31.6 µM [inhibitor, full curve]",
c1csc(-c2nc(N3CCN(Cc4ccc5c(c4)OCCO5)CC3)c3ccccc3n2)c1,,inactive: 15.4%
CCOC(=O)c1c(NC(=O)COC(=O)c2nccnc2N)sc2c1CCC2,"inconclusive: 11.2 µM [inhibitor, partial curve, poor fit]",
COc1ccc(OC)c(S(=O)(=O)Nc2ccc(O)c3ccccc23)c1,"inconclusive: 14.1 µM [inhibitor, full curve, poor fit]",
COc1cc(N=Cc2c(O)[nH]c3ccccc23)cc(OC)c1OC,"inconclusive: 79.4 µM [inhibitor, partial curve]",

# 2 entries from above, bar-delimited:
Structure (SMILES) | Potency | activity, negative = inhibition
CN1C(=O)c2cccc3c(S(=O)(=O)Nc4cccc(C(=O)O)c4)ccc1c23 | inconclusive: 79.4 µM [inhibitor, single point] | 
O=C(CSc1ccc2nnc(-c3cccs3)n2n1)N1CCOCC1 | inconclusive: 11.2 µM [inhibitor, partial curve, poor fit] | 
